Laboratory results from patent publication US20190218308A1.
These are yes or no findings as the source states them, for the method shown. Some results given as binding are weak or reduced against the parent protein; the word gives no strength.

Target: T1, CD39 mutant 13 (human) (UniProt P49961)
T1 sequence: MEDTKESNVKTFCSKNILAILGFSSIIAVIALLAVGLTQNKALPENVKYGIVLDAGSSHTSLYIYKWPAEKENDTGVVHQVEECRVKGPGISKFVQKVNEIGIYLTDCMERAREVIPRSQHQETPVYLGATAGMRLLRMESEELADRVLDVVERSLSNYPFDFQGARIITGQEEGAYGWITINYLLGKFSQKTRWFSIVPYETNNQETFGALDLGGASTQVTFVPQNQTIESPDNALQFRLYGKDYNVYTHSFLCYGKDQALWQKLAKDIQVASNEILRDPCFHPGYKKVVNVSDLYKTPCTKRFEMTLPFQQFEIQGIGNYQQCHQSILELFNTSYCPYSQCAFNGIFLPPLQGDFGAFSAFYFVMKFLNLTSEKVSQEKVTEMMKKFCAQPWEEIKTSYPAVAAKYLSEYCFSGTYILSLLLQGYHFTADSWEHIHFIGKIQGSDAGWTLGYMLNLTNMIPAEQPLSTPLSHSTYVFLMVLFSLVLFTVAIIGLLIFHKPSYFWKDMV
Test: flow cytometry, Hek-293T cells expressing mutant 13

binding: binds
B1: antibody I-399 (antibody, V domains shown)
VH: PVQLQQPGAEVVMPGASVKLSCKASGYTFTSFWMNWMRQRPGQGLEWIGEIDPSDFYTNSNQRFKGKATLTVDKSSSTAYMQLSSLTSEDSAVYFCARGDFGWYFDVWGTGTSVTVSS
VL: EIVLTQSPTTMTSSPGEKITFTCSASSSINSNYLHWYQQKPGFSPKLLIYRTSNLASGVPTRFSGSGSGTSYSLTIGTMEAEDVATYYCQQGSSLPRTFGGGTKLEIK
